Earlier results, collected in patent publication US20110312992A1, “Inhibitors of C-Kit and Uses Thereof” (priority 2006, published 2011).
Where a name gives a salt, the structure may show the parent alone.

Test system: c-Kit D816 activation loop mutations
Conditions: c-Kit D816 activation loop mutations of AML, systemic mastocytosis, seminoma; cited from earlier work

Cc1ccc(NC(=O)c2ccc(CN3CCN(C)CC3)cc2)cc1Nc1nccc(-c2cccnc2)n1 [imatinib mesylate, reference compound]
IC50: 5 to 10 µM
